Data published in PubChem BioAssay AID445 (National Center for Advancing Translational Sciences (NCATS), 2006).
The other results are listed elsewhere or left out. Further columns of the screen follow, without active or inactive calls. The list favours compounds with an active or inconclusive main result. The note in brackets gives the kind of curve behind each potency; many fits are weak.

Test: IkB Signaling
Conditions: ABC-DLBCL IkBa-CBG/CBR dual luciferase ratio (green luciferase fused to IkBa over red control in OCI-Ly3 lymphoma cells), 4 h; measured here: control luc red channel unless noted
In short: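 In this assay, an IκBα–CBG68 fusion accumulates when IKK-driven degradation is blocked; native CBR normalizes for cell number. OCI-Ly3 cells were treated 4 h with compound and doxycycline, then green and red light read after Chroma-Glo addition.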
In the case of `O=C(Nc1cccc(Cl)c1)c1c(NC(=O)C(F)(F)F)sc2c1CCCC2`, the AC50 was 2 µM [falling, full curve].
In the case of `CSc1nsc(NC(=O)Cc2ccccc2)n1`, the AC50 was 12.6 µM [falling, single point].
In the case of `COc1ccc(S(=O)(=O)N(CC(=O)NCc2ccccc2OC)c2ccc(C)cc2)cc1`, the AC50 was 39.8 µM [falling, partial curve].
With `CCOCCOC(=O)c1ccc(NC(=O)/C=C/c2ccc(OC)c(OC)c2)cc1` the AC50 was 15.8 µM [falling, partial curve, poor fit].
With `O=C(CSc1ncc2c(n1)-c1ccccc1N(Cc1ccc(F)cc1)S2(=O)=O)c1ccc(Cl)cc1` the AC50 was 10 µM [falling, partial curve].
With `Cc1cccc(C)c1-n1ncc(C(=O)Nc2ccc3c(c2)OCCO3)c1C1CCN(C(=O)OC(C)(C)C)CC1` the AC50 was 15.8 µM [falling, partial curve].
In the case of `COc1ccc(Nc2c(-c3cc(Br)ccc3O)nc3ncccn23)cc1OC`, the AC50 was 12.6 µM [falling, partial curve].
In the case of `Cc1ccc(NCc2cccn2-c2nnc(N3CCC(C(=O)NCc4ccc(OC(C)C)cc4)CC3)s2)cc1`, the AC50 was 0.126 µM [falling, full curve].
In the case of `COc1ccccc1N1CCN(S(=O)(=O)c2c(C)sc3ncn(CC(=O)N(C)c4ccc(C(C)C)cc4)c(=O)c23)CC1`, the AC50 was 7.94 µM [falling, full curve, poor fit].
For `COc1ccccc1CNC(=O)CN1C(=O)CSc2ccc(S(=O)(=O)N3CCCC3)cc21`, the AC50 was 31.6 µM [falling, single point].
With `Cc1ccc(-c2noc(CNC(=O)c3ccc(C(C)(C)C)cc3)n2)cc1` the AC50 was 20 µM [falling, partial curve].
In the case of `O=C(Nc1ccccn1)c1ccc2ccccc2n1`, the AC50 was 15.8 µM [falling, partial curve].
With `Cc1cc(C)cc(NC(=O)c2nnn(Cc3cc(C)ccc3C)c2N)c1` the AC50 was 12.6 µM [falling, partial curve].
For `COc1ccc(N2CCN(c3cc(C)nc4nc(-c5ccc(C)cc5)nn34)CC2)cc1`, the AC50 was 39.8 µM [rising, single point] [measured here: IkB-luc green channel].
For `COc1ccccc1-c1noc(-c2ccc(N3CCN(c4ccccc4)CC3)c([N+](=O)[O-])c2)n1`, the AC50 was 20 µM [falling, single point].
For `Cc1ccc(Cl)cc1NC(=O)N1CCN(C)c2ncccc21`, the AC50 was 7.94 µM [rising, single point].
In the case of `Cc1cccc(C(=O)N2CCc3cc(CNC(=O)CCc4ccccc4)ccc32)c1`, the AC50 was 12.6 µM [falling, partial curve].
In the case of `Cc1cc(C)cc(NC(=O)CSc2nccn2-c2ccccc2)c1`, the AC50 was 39.8 µM [falling, single point].
With `Cc1cccc2nc(-c3cccnc3)c(Nc3ccc(C(C)C)cc3)n12` the AC50 was 10 µM [falling, partial curve].
With `COc1ccc2c(c1)-c1nc(NC(=O)c3ccco3)sc1CC2` the AC50 was 31.6 µM [falling, single point].
For `Cc1ccc(-c2cc(N)n3nc(-c4ccc(C)cc4)cc3n2)cc1`, the AC50 was 20 µM [falling, partial curve].
In the case of `O=C(Cn1cc(SCc2ccc(C(F)(F)F)cc2)c2ccccc21)N1CCCCC1`, the AC50 was 15.8 µM [falling, partial curve].
For `Cc1cccc(Nc2nnc(-n3nc(C)cc3C)c3ccccc23)c1`, the AC50 was 2 µM [rising, partial curve].
For `COc1ccc2c(CNCc3ccc(Cl)cc3)c(C(=O)O)n(Cc3ccccc3C)c2c1`, the AC50 was 10 µM [falling, partial curve, poor fit].
In the case of `O=C(c1ccco1)N1CCN(c2nc3ccccc3n3nnnc23)CC1`, the AC50 was 0.251 µM [falling, full curve].
With `Cc1ccc2c(c1)nnn2C1CCN(S(=O)(=O)c2ccc(C(=O)N(C)C3CCCCC3)cc2)CC1` the AC50 was 12.6 µM [falling, partial curve].
For `COc1ccc(NC(=O)c2cnn(-c3ccc(C)cc3)c2-n2cccc2)cc1Cl`, the AC50 was 5.01 µM [falling, full curve].
In the case of `O=C(Cn1c(=O)oc2ccccc21)NCc1cccc(Cl)c1`, the AC50 was 0.251 µM [rising, full curve].
With `COc1ccc(Cl)cc1NC(=O)Cn1c2ncccc2c(=O)n1-c1ccc(C)c(C)c1` the AC50 was 0.0794 µM [rising, full curve, poor fit].
In the case of `Cc1ccc(-n2nc3c(=O)n(CC(=O)Nc4ccccc4F)nc(C)c3c2C)c(C)c1`, the AC50 was 12.6 µM [falling, partial curve].
With `Cc1cc(NS(=O)(=O)c2ccc(NC(=O)COc3ccc(Cl)cc3)cc2)nc(C)n1` the AC50 was 12.6 µM [falling, partial curve].
For `Cc1ccc(NC(=O)Nc2nnc(N(C)Cc3ccccc3)s2)cc1`, the AC50 was 20 µM [falling, single point].
For `COc1ccc(S(=O)(=O)N2CCC(c3ccncc3)CC2)cc1Cl`, the AC50 was 25.1 µM [falling, single point].
For `CN(C(=O)c1cc(-c2ccccc2O)on1)c1ccccc1`, the AC50 was 0.01 µM [falling, full curve].
For `CCCCOc1c(Cl)cc(C(=O)N(Cc2ccc(C)o2)C2CCS(=O)(=O)C2)cc1Cl` (stereo not given), the AC50 was 15.8 µM [falling, partial curve].
With `Cc1ccc(NS(=O)(=O)c2cccc(C(=O)OCC(=O)NCc3ccco3)c2)cc1` the AC50 was 25.1 µM [falling, partial curve].
With `CSc1ccc(CCNc2ncnc3onc(C)c23)cc1` the AC50 was 25.1 µM [falling, single point].
For `COc1ccc(NC(=O)c2ccc(-c3ccc(-c4noc(C)n4)cc3C)cc2)cc1OCCN(C)C`, the AC50 was 39.8 µM [falling, single point].
With `COc1ccc(C(CNC(=O)COc2ccc(C)cc2)N2CCCCC2)cc1` (stereo not given) the AC50 was 39.8 µM [falling, single point].
For `COc1ccccc1NC(=O)c1c(NCc2sccc2C)sc2c1CCCCC2`, the AC50 was 10 µM [falling, partial curve].
